Experimental data: PubChem BioAssay AID686943 (Drosophila RNAi Screening Center, 2013)

- Assay: 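Knockdowns that increase or decrease active ERK after insulin receptor stimulation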 (primary screen)
- Cells: Drosophila S2R+ haemocyte-like cells expressing YFP-tagged ERK (Rolled)
- Reagent: long dsRNA against Drosophila genes
- Conditions: insulin stimulation versus unstimulated cells; dose and duration not given
- Detection: 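Antibody staining for doubly phosphorylated ERK divided by ERK-YFP signal, as plate z-scores, in insulin-treated and untreated cells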
- Reading the numbers: replicate 1, z-score of dpERK with insulin: higher = more active ERK per ERK-YFP after insulin
The screen tested about 23,000 reagents; shown is an unselected part of those with a known target gene and a result. 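Extra replicates exist only for a retested subset of genes; insulin dose and duration not given; both raised and lowered dpERK matter.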 Not all columns of the deposit are shown. The record does not give: the amount of reagent, the time to read-out.

no.	Target gene	dsRNA	replicate 1, z-score of dpERK with insulin
1	nolo	DRSC03705	0.82
2	nolo	DRSC03719	-0.01
3	nolo	DRSC03720	0.15
4	CG13510	DRSC04152	0.54
5	sha	DRSC06331	0.55
6	CG6357	DRSC06979	0.15
7	Npc2b	DRSC15464	-0.21
8	CG32104	DRSC10127	1.07
9	CG32104	DRSC10128	0.82
10	mbl	DRSC05657	-0.26
11	mbl	DRSC06449	1.18
12	mbl	DRSC07651	-3.12
13	CG1208	DRSC12190	-0.39
14	CG15269	DRSC01942	0.79
15	CG17068	DRSC20545	0.65
16	ND-20	DRSC20164	-0.01
17	Nhe1	DRSC00762	0.08
18	Rtc1	DRSC20285	-0.59
19	CG43149	DRSC07859	0.65
20	aqrs	DRSC14724	0.96
21	Phyhd1	DRSC14911	1.46
22	Mtr3	DRSC10953	-1.42
23	dpr13	DRSC06160	-0.29
24	dpr13	DRSC06464	0.15

A few values from the entries so far.
Value of mbl [DRSC05657] under “replicate 1, z-score of dpERK with insulin”: -0.26
Value for Phyhd1 [DRSC14911] under “replicate 1, z-score of dpERK with insulin”: 1.46
Value of ND-20 [DRSC20164] under “replicate 1, z-score of dpERK with insulin”: -0.01
